Results taken from PubChem BioAssay AID504327 (National Center for Advancing Translational Sciences (NCATS), 2011).
Among all 390,000 compounds or so, about 820 (0.21%) were called active. This list was built around the results that the source calls inconclusive (neither active nor inactive); the mix of calls is not that of the screen. Calls follow the shape of the dose curve; as a rule, active = well fitted inhibition curve with a large enough effect; inconclusive = small, poorly fitted or top-dose-only effect, or another doubt; inactive = no such curve, though single readings can be large or run the other way. Potencies of inconclusive entries are doubtful fits and often do not repeat.

Amino acid sequences for entries named in this document (tags omitted).
UniProt Q92830, whole entry, looked up: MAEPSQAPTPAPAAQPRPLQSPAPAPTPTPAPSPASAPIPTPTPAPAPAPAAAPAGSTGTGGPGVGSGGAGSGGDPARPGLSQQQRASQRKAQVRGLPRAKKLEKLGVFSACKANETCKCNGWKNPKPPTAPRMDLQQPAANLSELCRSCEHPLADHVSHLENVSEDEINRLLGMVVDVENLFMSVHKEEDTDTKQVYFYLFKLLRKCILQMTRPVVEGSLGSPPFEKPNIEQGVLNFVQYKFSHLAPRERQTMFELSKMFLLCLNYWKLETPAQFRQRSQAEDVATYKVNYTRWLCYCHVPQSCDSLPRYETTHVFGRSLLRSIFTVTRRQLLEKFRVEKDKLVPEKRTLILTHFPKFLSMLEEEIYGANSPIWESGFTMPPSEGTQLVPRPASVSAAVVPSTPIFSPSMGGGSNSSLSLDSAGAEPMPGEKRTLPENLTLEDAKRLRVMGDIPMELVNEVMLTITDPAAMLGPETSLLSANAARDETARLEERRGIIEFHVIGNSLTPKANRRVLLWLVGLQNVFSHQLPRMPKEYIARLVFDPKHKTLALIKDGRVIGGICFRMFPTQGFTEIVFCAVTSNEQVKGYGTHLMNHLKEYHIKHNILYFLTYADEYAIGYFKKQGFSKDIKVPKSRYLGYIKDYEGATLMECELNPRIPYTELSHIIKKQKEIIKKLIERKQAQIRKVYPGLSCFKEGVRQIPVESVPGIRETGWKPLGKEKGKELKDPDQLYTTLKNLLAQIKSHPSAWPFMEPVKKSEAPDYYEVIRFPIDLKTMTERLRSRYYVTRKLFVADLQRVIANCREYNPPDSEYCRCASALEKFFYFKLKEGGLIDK

Target: Histone acetyltransferase KAT2A (Homo sapiens) (UniProt Q92830)
Test: qHTS Assay for Inhibitors of GCN5L2
Settings: GCN5L2 HAT assay, ThioGlo1 CoA-SH fluorescence; series mostly up to 58.9 µM
Outline: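 qHTS, 1536-well. 20nM enzyme, pH 7.5 HEPES/EDTA/Tween-20 buffer; 15 min compound preinc., RT. Start: 75uM H3(1-25), 70uM AcCoA, 50uM ThioGlo1. Read Ex340/Em540 at t=0 (autofluorescence flag) and t=20 min.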
Potency is read from the fitted curve at half-maximal effect.

Row | SMILES | Potency
1 | C[C@H](NC(=O)c1nc[nH]c1C(=O)NCC(=O)OCc1ccccc1)c1ccccc1 | inconclusive: 1 µM [inhibitor, single point]
2 | CCc1nn2c(=O)cc(COC(=O)C3CCCCC3)nc2s1 | inconclusive: 8.91 µM [inhibitor, single point]
3 | Cc1ccc(Cn2c(=O)n(CC3CCC(C(=O)N4CCOCC4)CC3)c(=O)c3sccc32)cc1 (stereo not drawn) | inactive
4 | CC(=O)Nc1cc[n+](C(C)C(=O)c2ccccc2)cc1 (stereo not drawn) | inconclusive: 7.08 µM [inhibitor, single point]
5 | CCOc1ccc2nc(NCCNC(=O)c3cc(OC)c(OC)c(OC)c3)c(C#N)cc2c1 | inconclusive: 20 µM [inhibitor, single point]
6 | COC(=O)c1cc2oc3ccccc3c2n1Cc1c(F)cccc1Cl | inactive
7 | CCSc1nnc(NC(=O)c2cc(C)on2)s1 | inconclusive: 6.31 µM [inhibitor, single point]
8 | COc1ccc(-c2nn(-c3ccccc3)cc2/C=C2/SC(=S)N(CCCC(=O)O)C2=O)c(C)c1 | inconclusive: 39.8 µM [inhibitor, single point]
9 | Cc1cccc(N2C(=O)C3C4C=CC(C5CC45)C3C2=O)n1 (stereo not drawn) | inconclusive: 39.8 µM [inhibitor, single point]
10 | O=C(CS(=O)CC(=O)Nc1cccnc1)Nc1ccc(F)cc1 (stereo not drawn) | inactive
11 | Cc1ccc(Oc2nc(-c3ccccn3)nc3ccccc23)cc1 | inconclusive: 12.6 µM [inhibitor, partial curve, poor fit]
12 | CC(=O)Nc1ccc(C=NNc2ccc([N+](=O)[O-])cc2S(=O)(=O)Nc2ccccc2C(=O)O)cc1 | inconclusive: 20 µM [inhibitor, single point]
13 | Cc1cccc(C)c1OCCCN1CCCC1 | inconclusive: 39.8 µM [inhibitor, single point]
14 | COc1ccccc1CCN=C(N)NS(=O)(=O)c1ccc(C)c(C)c1 | inactive
15 | Cc1ccccc1NC(=O)c1sc2nc(N3CCOCC3)c3c(c2c1N)CCCC3 | inconclusive: 39.8 µM [inhibitor, single point]
16 | Cc1ccccc1Nc1cc(C(=O)NC2CCCCC2)c2ccccc2n1 | inactive
17 | COc1cc(NC(=O)c2cc(C3CC3)nc3c2c(C)nn3-c2ccc(C)cc2)cc(OC)c1 | inconclusive: 15.8 µM [inhibitor, partial curve]
18 | COc1ccc(-c2[nH]ncc2[C@@H]2C[C@H]3CN(Cc4ccccc4C)C(=O)[C@]34CCCN24)cc1 | inactive
19 | Cc1ccccc1CN1CCN(S(=O)(=O)c2cccc3nsnc23)CC1 | inconclusive: 22.4 µM [inhibitor, partial curve]
20 | COc1ccc2oc(C(=O)OCC(=O)N3CC(C)CC(C)C3)c(C)c2c1 (stereo not drawn) | inconclusive: 39.8 µM [inhibitor, single point]
21 | N#Cc1ccc2c(c1)N(CCCN1CCC(O)CC1)c1ccccc1S2 | inconclusive: 31.6 µM [inhibitor, partial curve]
22 | NC(=S)COc1ccccc1 | inconclusive: 39.8 µM [inhibitor, single point]
23 | COc1ccc(CC(=O)NNC(=O)CSc2nc(C)c(C)c(=O)[nH]2)cc1 | inactive

From no. 3 up to 5, as listed above:
Row | SMILES | Potency
3 | Cc1ccc(Cn2c(=O)n(CC3CCC(C(=O)N4CCOCC4)CC3)c(=O)c3sccc32)cc1 (stereo not drawn) | inactive
4 | CC(=O)Nc1cc[n+](C(C)C(=O)c2ccccc2)cc1 (stereo not drawn) | inconclusive: 7.08 µM [inhibitor, single point]
5 | CCOc1ccc2nc(NCCNC(=O)c3cc(OC)c(OC)c(OC)c3)c(C#N)cc2c1 | inconclusive: 20 µM [inhibitor, single point]

Going on with the list:

Row | SMILES | Potency
24 | CN1CCN(C(=O)c2sc(=S)n(-c3ccccc3)c2N)CC1 | inconclusive: 8.91 µM [inhibitor, full curve, poor fit]
25 | Cc1cccc(NC(=O)CSc2nnnn2C)n1 | inconclusive: 3.98 µM [inhibitor, single point]
26 | Cc1cccc(CNC(=O)c2ccc3nc(-c4ccccc4)c(-c4ccccc4)nc3c2)c1 | inactive
27 | CCOC(=O)c1c(C)[nH]c(C)c1C(=O)COC(=O)/C=C/c1ccco1 | inactive
28 | CCc1ccc(S(=O)(=O)c2c(C(=O)c3ccc(C)c(C)c3)cnc3ccccc23)cc1 | inactive
29 | CCCCCCCc1nc2c(=O)n(C)c3ccccc3c2o1 | inconclusive: 39.8 µM [inhibitor, single point]
30 | COc1cc(/C=C2/C(=N)N3C(=NC2=O)SN=C3S(C)(=O)=O)ccc1OS(=O)(=O)c1ccc(C)cc1 | inconclusive: 25.1 µM [inhibitor, partial curve]
31 | O=c1oc2cc(O)ccc2cc1S(=O)(=O)c1ccccc1 | inconclusive: 22.4 µM [inhibitor, partial curve]
32 | N#CC1(NC(=O)COC(=O)C23CC4CC(CC(O)(C4)C2)C3)CCCCC1 | inconclusive: 39.8 µM [inhibitor, single point]
33 | c1cc2c(cc1-c1csc(NNC3=NCCCCC3)n1)OCCO2 | inconclusive: 14.1 µM [inhibitor, partial curve]
34 | CCCCC(C)/C=C(C)/C=C(\C)C(=O)NC1=CC(O)(/C=C/C=C/C=C/C(=O)NC2=C(O)CCC2=O)C2OC2C1=O (stereo not drawn) | inconclusive: 39.8 µM [inhibitor, single point]
35 | CCc1nc(N2CCN(Cc3ccc4c(c3)OCO4)CC2)c2oc3ccccc3c2n1 | inconclusive: 0.355 µM [inhibitor, partial curve, poor fit]
36 | O=C(NCCc1ccccc1)c1ccc(CSc2nc3cccnc3n2Cc2ccccc2)cc1 | inactive
37 | O=C(Nc1sc2c(c1C(=O)O)CCCCC2)c1cccnc1 | inconclusive: 39.8 µM [inhibitor, single point]
38 | Cc1ccc(C)c(C(=O)Cn2c(NCCO)nc3ccccc32)c1 | inactive
39 | COc1cccc(NC(=S)NC(=O)/C=C/c2ccco2)c1 | inactive
40 | CC(=O)NC(c1ccco1)c1cc(F)c2cccnc2c1O (stereo not drawn) | inconclusive: 39.8 µM [inhibitor, single point]
41 | Cc1c(NC(=O)Nc2cccc(C(F)(F)F)c2)sc2nc3n(c(=O)c12)CCC(C)CC3 (stereo not drawn) | inactive
42 | CCOC(=O)C1CCN(c2cc3c(cc2NC(=O)c2ccccc2Cl)n(C)c(=O)n3C)CC1 | inconclusive: 2.82 µM [inhibitor, partial curve]
43 | O=C(CCNC(=O)C1CCN(S(=O)(=O)c2ccccc2)CC1)NCc1ccc(Cl)c(Cl)c1 | inconclusive: 3.98 µM [inhibitor, partial curve, poor fit]
44 | CN1CCN(C(=O)c2ccc3c(c2)NC(=O)C(N2CCOCC2)S3)CC1 (stereo not drawn) | inconclusive: 1 µM [inhibitor, partial curve, poor fit]
45 | COC(=O)c1c(C)c(C)nc(N)c1C#N | inconclusive: 7.94 µM [inhibitor, partial curve]
46 | COC(=O)c1ccc2c(c1)c(C#Cc1ccccc1)c(-c1ccccc1)n2C | inconclusive: 25.1 µM [inhibitor, single point]

Row | SMILES | Potency
47 | O=C(Nc1ncnc2c1C(c1ccccc1)c1c(ccc3ccccc13)O2)c1ccccc1 (stereo not drawn) | inactive
48 | Nc1nc2c(ncn2C2OC(COC(=O)c3ccccc3)C(OC(=O)c3ccccc3)C2OC(=O)c2ccccc2)c(=O)[nH]1 (stereo not drawn) | inactive
49 | O=C(O)CC1S/C(=N/N=C/C2CC=CCC2)NC1=O (stereo not drawn) | inconclusive: 1 µM [inhibitor, full curve, poor fit]
50 | Cc1[nH]c(-c2ccccn2)nc(=S)c1Cl | inactive
51 | CCOC(=S)SCC(=O)Nc1nc(C)c(C)s1 | inconclusive: 39.8 µM [inhibitor, single point]
52 | Cn1c(=O)c2c(nc(CN3CCN(CCO)CC3)n2Cc2ccccc2Cl)n(C)c1=O | inconclusive: 20 µM [inhibitor, partial curve]
53 | CC(=O)Oc1cccc(/C=C2\Sc3ccccc3C2=O)c1 | inconclusive: 10 µM [inhibitor, partial curve, poor fit]
54 | Nc1ccc(S(=O)(=O)Nc2nc3ccccc3o2)cc1 | inconclusive: 7.08 µM [inhibitor, single point]
55 | CN(C)c1ccc(/C=C/c2nc3ccccc3c(=O)n2-c2ccc(C(=O)O)cc2)cc1 | inconclusive: 28.2 µM [inhibitor, single point]
56 | CCn1c(CNC(=O)c2ccccc2F)nnc1SCC(=O)NC1CCCCC1 | inconclusive: 7.08 µM [inhibitor, single point]
57 | COC(=O)c1ccc(NS(=O)(=O)c2ccc3c(c2)n(C)c(=O)c(=O)n3C)cc1 | inactive
58 | O=C(O)c1ccccc1NS(=O)(=O)c1ccc(NNC(=S)Nc2ccc(OC(F)F)cc2)c([N+](=O)[O-])c1 | active: 22.4 µM
59 | Cc1ccsc1C(=O)Nc1ccc(O)c(-c2nc3ccccc3s2)c1 | inconclusive: 22.4 µM [inhibitor, partial curve]
60 | COc1cc2ncnc(Nc3cccc(Br)c3)c2cc1OC | inconclusive: 25.1 µM [inhibitor, partial curve]
61 | COCCN1C(=O)N(c2cccc(OC)c2)C(=O)C1CC(=O)Nc1ccccc1 (stereo not drawn) | inactive
62 | COc1cccc(CCNC(=O)CCc2nnc(Cc3cc(OC)ccc3OC)o2)c1 | inactive
63 | COc1ccc(OC)c(NC(=O)CSc2nnc(Cn3nnc4ccccc43)n2C)c1 | inconclusive: 39.8 µM [inhibitor, single point]
64 | Cc1cccc(/C=C/C(=O)c2cc(Br)ccc(=O)c2O)c1 | inconclusive: 5.62 µM [inhibitor, full curve]
65 | COC(C[C@@H]1O[C@@H]1[C@@H](O)[C@@H](C)OCc1ccccc1)OC | inactive
66 | CCc1ccc(NC(=O)COc2ccc(/C=C(/C#N)c3nc4ccccc4[nH]3)cc2OC)cc1 | inconclusive: 8.91 µM [inhibitor, full curve]
67 | COc1ccc(OC)c2c(N3CC(C)OC(C)C3)cc(C(F)(F)F)nc12 (stereo not drawn) | inconclusive: 6.31 µM [inhibitor, single point]
68 | COc1cc(C(O)CO)ccc1O (stereo not drawn) | inconclusive: 39.8 µM [inhibitor, single point]
